At least one compound was matched to its structure with a doubt left. Some entries repeat one wording, which the source may state once for all of them.
Experiments:
[1] = tested on: TNFα trimer complex to folate receptor (FOLR2); test: SPR co-engagement of compound-TNFα trimer complex to folate receptor; settings: TNFα + 10 nM compound binding FOLR2
Method: The active (Flow cell 2) surfaces of a Cytiva CM5 Series S Sensor Chip functionalized with FOLR2 as described in Example 58. Example compounds were diluted to 10 nM with 50 and 100 nM TNFα single chain trimer or 150 nM and 300 nM TNFα native monomer in running buffer (10 mM HEPES, 150 mM NaCl, 0.05% T20, pH 7.5, 2% DMSO), allowed to incubate for 5 hours at 25° C. and then flowed over the active and reference surfaces for 110 s, and then allowed to dissociate in running buffer for 600 s, at a flow rate of 30 μL/min. The FOLR2 immobilized active surface and the reference surface were regenerated with a 30 s pulse of 4M MgCl2 at 30 μL/min then allowed to equilibrate 240 s. Sensorgrams were solvent corrected, double-referenced, and the data fitted and analyzed in Biacore Insight Evaluation Software Version 3.0.11.15423.

The chains behind the UniProt entries cited, without tags or fusion partners. Residues count along the entry.
UniProt P01375, 77-233 limits assumed: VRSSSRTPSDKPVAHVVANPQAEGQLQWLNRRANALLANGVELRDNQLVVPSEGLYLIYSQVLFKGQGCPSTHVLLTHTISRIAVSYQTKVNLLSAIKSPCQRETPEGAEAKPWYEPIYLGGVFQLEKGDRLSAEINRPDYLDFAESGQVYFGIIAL

THP-1 cells = test: Compound mediated degradation of TNFα in THP-1 cells (pulse-chase, blot); type: cell-based; settings: 10 μM compound, 60 min pulse, 90 min chase, +/- leupeptin and pepstatin A
TNFα trimer = TNFα trimer (Homo sapiens, UniProt P01375); test: SPR binding kinetics of compounds to TNFα trimer; settings: TNFalpha trimer immobilized
Method: Streptavidin 100 μg/mL Streptavidin (Invitrogen Cat #: 434302) diluted in 10 mM sodium acetate, pH 4.5) was immobilized to both the reference and active surfaces as described in Example 51. The surfaces were conditioned with three injections of running Buffer (10 mM HEPES, 150 mMNaCl, 0.05% T20, pH 7.5, 2% DMSO) at a flow rate of 10 μL/min, Contact time: 60 s. Flow rate: 10 μL/min. The active surface was treated with biotinylated linked TNFα trimer 20 μg/mL diluted in running buffer at a flow rate of 5 μL/min contact time: 600 s, yielding a final response of ˜3000 RU. Example compounds were then serially diluted 1:1 in running buffer (10 mM HEPES, 150 mM NaCl, 0.05% T20, pH 7.5, 2% DMSO) from 30 uM to 937.5 nM and flowed over the active and reference surfaces from lowest concentration to greatest concentration in the single-cycle kinetics format, and then allowed to dissociate in running buffer for 7200 s, at 30 μL/min. Sensorgrams were solvent corrected, double-referenced, and the data fitted and analyzed in Biacore Insight Evaluation Software Version 3.0.11.15423.

Cc1nc2cc(F)c(-c3cnc(OCCCCCn4cc(COCCOCCNC(=O)CC[C@H](NC(=O)c5ccc(NCc6cnc7nc(N)nc(O)c7n6)cc5)C(=O)O)nn4)nc3)nc2c(N[C@H](C)c2cc(C#N)ccc2F)c1Cl [Compound I-16, N2-(4-(((2-amino-4-hydroxypteridin-6-yl)methyl)amino)benzoyl)-N5-(2-(2-((1-(5-((5-(7-chloro-8-((I-1-(5-cyano-2-fluorophenyl)ethyl)amino)-3-fluoro-6-methyl-1,5-naphthyridin-2-yl)pyrimidin-2-yl)oxy)pentyl)-1H-1,2,3-triazol-4-yl)methoxy)ethoxy)ethyl)-L-glutamine]
co-engagement / complex formation observed on SPR [1]: complex formation observed

Cc1nc2cc(F)c(-c3cnc(OCCCCCn4cc(COCCOCCOCCOCCNC(=O)CC[C@H](NC(=O)c5ccc(NCc6cnc7nc(N)nc(O)c7n6)cc5)C(=O)O)nn4)nc3)nc2c(N[C@H](C)c2cc(C#N)ccc2F)c1Cl [Compound I-17, (S)-18-(4-(((2-amino-4-hydroxypteridin-6-yl)methyl)amino)benzamido)-1-(1-(5-((5-(7-chloro-8-((I-1-(5-cyano-2-fluorophenyl)ethyl)amino)-3-fluoro-6-methyl-1,5-naphthyridin-2-yl)pyrimidin-2-yl)oxy)pentyl)-1H-1,2,3-triazol-4-yl)-15-oxo-2,5,8,11-tetraoxa-14-azanonadecan-19-oic acid]
degradation of internalized TNFα (THP-1 cells): mediated degradation and rescue of TNFα in THP-1 cells

Cc1nc2ccc(-c3cnc(OCCOCCn4cc(COCCOCCOCCOCCNC(=O)CC[C@H](NC(=O)c5ccc(NCc6cnc7nc(N)nc(O)c7n6)cc5)C(=O)O)nn4)nc3)cc2n1Cc1ccccc1OC(F)F [Compound I-24, (S)-18-(4-(((2-amino-4-hydroxypteridin-6-yl)methyl)amino)benzamido)-1-(1-(2-(2-((5-(1-(2-(difluoromethoxy)benzyl)-2-methyl-1H-benzo[d]imidazol-6-yl)pyrimidin-2-yl)oxy)ethoxy)ethyl)-1H-1,2,3-triazol-4-yl)-15-oxo-2,5,8,11-tetraoxa-14-azanonadecan-19-oic acid]
co-engagement / complex formation observed on SPR [1]: complex formation observed

Nc1nc(O)c2nc(CNc3ccc(C(=O)N[C@@H](CCC(=O)NCCOCCOCCOCCOCc4cn(CCCCCOc5ccc(-c6ccc7nc(COc8cccc(N9CCCC9=O)c8)n(Cc8ccccc8OC(F)F)c7c6)cn5)nn4)C(=O)O)cc3)cnc2n1 [Compound I-25, (S)-18-(4-(((2-amino-4-hydroxypteridin-6-yl)methyl)amino)benzamido)-1-(1-(5-((5-(1-(2-(difluoromethoxy)benzyl)-2-((3-(2-oxopyrrolidin-1-yl)phenoxy)methyl)-1H-benzo[d]imidazol-6-yl)pyridin-2-yl)oxy)pentyl)-1H-1,2,3-triazol-4-yl)-15-oxo-2,5,8,11-tetraoxa-14-azanonadecan-19-oic acid]
Rmax (TNFα trimer): 49.3 RU
Stoichiometry (TNFα trimer): 0.7
co-engagement / complex formation observed on SPR [1]: complex formation observed

Cc1nc2ccc(-c3cnn(CCCCCCn4cc(COCCOCCOCCOCCNC(=O)CC[C@H](NC(=O)c5ccc(NCc6cnc7nc(N)nc(O)c7n6)cc5)C(=O)O)nn4)c3)cn2c1Cc1cc(Cl)ccc1Cl [Compound I-26, (S)-18-(4-(((2-amino-4-hydroxypteridin-6-yl)methyl)amino)benzamido)-1-(1-(6-(4-(3-(2,5-dichlorobenzyl)-2-methylimidazo[1,2-a]pyridin-6-yl)-1H-pyrazol-1-yl)hexyl)-1H-1,2,3-triazol-4-yl)-15-oxo-2,5,8,11-tetraoxa-14-azanonadecan-19-oic acid]
co-engagement / complex formation observed on SPR [1]: complex formation observed
